Experimental data: BindingDB's records for PubMed 8450829 (Cnrs, 1993)

The chains behind the UniProt entries cited, without tags or fusion partners.
UniProt P31387, whole entry: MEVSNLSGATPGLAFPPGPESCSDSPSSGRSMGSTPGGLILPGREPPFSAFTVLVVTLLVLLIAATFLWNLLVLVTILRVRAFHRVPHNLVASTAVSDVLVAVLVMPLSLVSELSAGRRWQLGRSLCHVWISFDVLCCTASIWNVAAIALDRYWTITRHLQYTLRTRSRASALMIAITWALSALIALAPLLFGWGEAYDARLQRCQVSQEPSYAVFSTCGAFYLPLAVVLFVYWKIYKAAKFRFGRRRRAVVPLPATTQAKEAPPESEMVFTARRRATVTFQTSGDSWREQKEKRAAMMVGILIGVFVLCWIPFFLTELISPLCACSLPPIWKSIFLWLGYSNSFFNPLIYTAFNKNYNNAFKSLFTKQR

Target: 5-hydroxytryptamine receptor 5B (Mus musculus, UniProt P31387)

CC(C)NC[C@H](O)COc1cccc2ccccc12 [Propanolol,(+/-)]
Ki: 6.31 µM
